# Screening data, single-dose tests

The filed quantity is “Percent Effect” (%).
How 0% and 100% were set is not recorded. Most values in the screen are low, and negative values occur.
The compounds are a random part of those screened.

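Assay of Toxoplasma gondii numbers, read through their beta-galactosidase reporter with a colour substrate. Concentration: 50 µM. The record gives no direction; the compounds picked for IC50 retests had high values, so higher reads as fewer parasites. About 18,000 compounds were tested under these conditions; 0.94% (about 170) showed 50% or more at least once.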

{"compound": "CC(CNC(=O)c1cncc(Br)c1)N1CCCC1", "stereo": "centres undefined", "percent effect": 12.86}
{"compound": "O=C(c1ccco1)N1CCN(CC2(O)CCNC2)CC1", "stereo": "centres undefined", "percent effect": -3.745}
{"compound": "Cn1c(SC2CCCCNC2=O)nc2sccc2c1=O", "stereo": "centres undefined", "percent effect": 3.429}
{"compound": "CO[C@H]1CNCC1NC(=O)c1ccc2ncccc2c1", "stereo": "some centres undefined", "percent effect": 27.12}
{"compound": "CCN(CC(C)C#N)Cn1nnc2ccccc2c1=O", "stereo": "centres undefined", "percent effect": 4.185}
{"compound": "CCc1cc2c(=O)n(CCN3CCNCC3)cnc2s1", "percent effect": -4.555}
{"compound": "Cc1nnnn1-c1ccccc1C(=O)N1CCOCC1", "percent effect": 11.78}
{"compound": "O=C(NCCN1CCCS1(=O)=O)C1CCC1", "percent effect": 0.5841}
{"compound": "COCCN1CCN(Cc2cccnc2C)CC1=O", "percent effect": -7.634}
{"compound": "CO[C@H]1CNCC1NC(=O)Cc1cccc(F)c1F", "stereo": "some centres undefined", "percent effect": 1.211}
{"compound": "CC(Sc1nnc(NCC(F)(F)F)s1)C(N)=O", "stereo": "centres undefined", "percent effect": -12.14}
{"compound": "O=C(NCC(O)CO)Nc1ccc(F)cc1C(F)(F)F", "stereo": "centres undefined", "percent effect": -10.57}
{"compound": "CC1(C)C[S+]([O-])CCN1C(=O)c1cccc(F)c1Cl", "stereo": "centres undefined", "percent effect": -24.95}
{"compound": "CC(C)(C)OC(=O)NC[C@@H]1CCC[C@H]1N", "percent effect": -4.138}
{"compound": "CSCCC(=O)NCc1ccc2nonc2c1", "percent effect": 8.121}
{"compound": "COC1(CNC(=O)NCCc2cnn(C)c2C)CCC1", "percent effect": -3.213}
{"compound": "CC(=O)N1CCCn2nc(-c3cccnc3)cc2C1", "percent effect": 7.527}
{"compound": "COc1cc(NC(=O)CN2CC(O)C2)cc(OC)c1", "percent effect": -9.132}
{"compound": "CC(=O)N1CCC[C@H]1C(=O)NCCc1csc(C)n1", "percent effect": -8.288}
{"compound": "Brc1cncc(C2CCCN2)c1", "stereo": "centres undefined", "percent effect": -33.3}
{"compound": "CN(CC1CC1)C(=O)c1cccnc1-n1cccn1", "percent effect": 5.967}
{"compound": "Cc1ccccc1OCC(=O)NCCCN(C)C", "percent effect": -17.22}
{"compound": "COC(=O)[C@@H]1CC(O)CN1S(=O)(=O)c1ccc(C)cc1", "stereo": "some centres undefined", "percent effect": -15.01}
{"compound": "O=C(c1coc(CN2CCOCC2)c1)N1CCSCC1", "percent effect": -13.12}
{"compound": "COc1ccc(OC)c(C(=O)Cn2cnc(C#N)n2)c1", "percent effect": -10.46}
{"compound": "O=C(NCc1ccccn1)c1n[nH]cc1I", "percent effect": -31.73}
{"compound": "Cc1nc(CN2Cc3ccccc3CC2C(N)=O)c[nH]1", "stereo": "centres undefined", "percent effect": 3.342}
{"compound": "CN(C)CCNC(=O)Cn1ccc(N)n1", "percent effect": 7.414}
{"compound": "NC1=Nc2ccccc2Sc2ncccc21", "percent effect": -29.44}
{"compound": "c1ccc(-n2nnnc2CN2CCNCC2)cc1", "percent effect": -20.2}
{"compound": "N#Cc1ccc(C(=O)NCCCc2ncc[nH]2)cn1", "percent effect": -0.4936}
{"compound": "CCCNc1nnc(SCC(C)(C)O)s1", "percent effect": -6.751}
{"compound": "CC1Cc2cc(CO)ccc2O1", "stereo": "centres undefined", "percent effect": -10.07}
{"compound": "O=C(NC1CC1)c1n[nH]c2ccccc12", "percent effect": -5.879}
{"compound": "Cc1nc(CN2CC3(CCNCC3)CCC2=O)cs1", "percent effect": -9.355}
{"compound": "CCC(NC(=O)Cc1ccccn1)c1nc(C)c[nH]1", "stereo": "centres undefined", "percent effect": 2.797}
{"compound": "O=C(CC(F)(F)F)NC1CCN(CC2CC2)C1", "stereo": "centres undefined", "percent effect": 48.09}
{"compound": "OCc1ccncc1NCC1CCOCC1", "percent effect": -6.569}
{"compound": "N[C@@H]1CCCC[C@H]1NS(=O)(=O)CCc1ccccc1", "percent effect": -5.367}
{"compound": "NCc1cccc(C(=O)N2CCCC2)c1", "percent effect": 19.07}
{"compound": "CCn1cc(NC(=O)NCC2CCS(=O)(=O)C2)cn1", "stereo": "centres undefined", "percent effect": 5.787}
{"compound": "CCN1CCN(C(=O)C(C)Oc2ccc(F)cc2)CC1", "stereo": "centres undefined", "percent effect": 9.824}
{"compound": "CSc1ncc(CN2CCCC(NC(C)=O)C2)cn1", "stereo": "centres undefined", "percent effect": 0.6168}
{"compound": "O=C1CCCN1CCC1CCNCC1", "percent effect": -3.603}
{"compound": "CCS(=O)(=O)N(C)c1ccc(C(N)=O)cc1", "percent effect": 4.027}
{"compound": "COc1ccc(NC(=O)N2CCN3CCC2CC3)cn1", "percent effect": -14.74}
{"compound": "CNCC(=O)Nc1cc(F)c(OC)cc1OC", "percent effect": 2.759}
{"compound": "Nc1nc2n(c1C(=O)c1ccccc1)CCC2", "percent effect": 7.164}
{"compound": "NCCS(=O)(=O)N1CCc2ccccc21", "percent effect": 12.19}
{"compound": "c1ccc(C2=NCCN2)nc1", "percent effect": -4.446}
{"compound": "CCN1CCCC1CNC(=O)c1cncc(Br)c1", "stereo": "centres undefined", "percent effect": 0.698}
{"compound": "O=C(Nc1nnc(-c2cccs2)s1)NC1CCCNC1", "stereo": "centres undefined", "percent effect": 20.57}
{"compound": "O=C(C1CC12CCNCC2)N1CCCC1", "stereo": "centres undefined", "percent effect": 32.54}
{"compound": "Cc1ccc(CN(C)C(=O)NCCNS(C)(=O)=O)cc1", "percent effect": -9.673}
{"compound": "CCOCCN1CCN(C(=O)CN2CCCC2)CC1", "percent effect": 4.051}

7 of the entries, repeated:

{"compound": "Cc1ccc(CN(C)C(=O)NCCNS(C)(=O)=O)cc1", "percent effect": -9.673}
{"compound": "O=C(NCc1ccccn1)c1n[nH]cc1I", "percent effect": -31.73}
{"compound": "Cn1c(SC2CCCCNC2=O)nc2sccc2c1=O", "stereo": "centres undefined", "percent effect": 3.429}
{"compound": "Cc1ccccc1OCC(=O)NCCCN(C)C", "percent effect": -17.22}
{"compound": "CN(CC1CC1)C(=O)c1cccnc1-n1cccn1", "percent effect": 5.967}
{"compound": "Cc1nnnn1-c1ccccc1C(=O)N1CCOCC1", "percent effect": 11.78}
{"compound": "NC1=Nc2ccccc2Sc2ncccc21", "percent effect": -29.44}

From ChEMBL document CHEMBL3988442, “University of Dundee, Small-Polar-MMV Screening Library” (2021).